According to publication PMC3944073:
Results are given in words; binding and its absence hold for the method and conditions named. In cells and extracts the contact can be indirect. Some results given as binding are weak or reduced against the parent protein; the word gives no strength.

The chains behind the UniProt entries cited, without tags or fusion partners.
UniProt P26040: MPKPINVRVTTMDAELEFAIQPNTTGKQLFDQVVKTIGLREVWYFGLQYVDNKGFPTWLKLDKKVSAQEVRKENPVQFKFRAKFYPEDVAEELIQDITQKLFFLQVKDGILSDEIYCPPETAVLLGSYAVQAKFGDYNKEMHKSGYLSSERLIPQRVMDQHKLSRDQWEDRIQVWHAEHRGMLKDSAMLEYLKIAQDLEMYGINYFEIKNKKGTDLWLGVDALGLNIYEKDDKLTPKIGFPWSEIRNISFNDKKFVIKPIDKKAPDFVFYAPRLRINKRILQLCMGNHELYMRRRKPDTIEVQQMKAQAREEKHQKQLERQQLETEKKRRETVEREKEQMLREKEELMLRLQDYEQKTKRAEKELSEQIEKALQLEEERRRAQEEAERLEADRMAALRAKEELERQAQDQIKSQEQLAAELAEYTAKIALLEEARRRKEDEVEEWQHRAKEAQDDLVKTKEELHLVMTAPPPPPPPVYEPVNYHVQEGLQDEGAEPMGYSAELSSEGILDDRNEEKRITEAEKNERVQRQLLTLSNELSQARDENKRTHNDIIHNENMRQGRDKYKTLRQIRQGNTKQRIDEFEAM

Molecular target: T1, β-dystroglycan (mouse (endogenous in C2C12)) (UniProt Q62165)
T1 sequence: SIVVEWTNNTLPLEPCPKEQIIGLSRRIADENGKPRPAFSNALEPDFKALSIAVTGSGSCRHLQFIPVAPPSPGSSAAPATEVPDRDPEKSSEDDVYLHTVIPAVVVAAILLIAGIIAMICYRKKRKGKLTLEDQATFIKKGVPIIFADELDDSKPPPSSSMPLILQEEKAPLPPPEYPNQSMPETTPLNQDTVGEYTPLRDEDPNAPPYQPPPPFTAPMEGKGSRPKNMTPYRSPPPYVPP
Assay: co-IP; C2C12 total extracts (1 mg) precipitated with anti-β-DG antibody or irrelevant IgG (IgG0) on protein G-agarose, overnight at 4°C; washes with 500 mM NaCl, 1% Triton X-100; Western blot for β-DG and ezrin

- binding: binds
Substance: ezrin (from UniProt P26040 1-586)
